The target in this test is ovalbumin (OVA) (UniProt P01012). As to the kind of experiment: zeta potential (DLS, Zetasizer) of ovalbumin/MAP-AP mixtures at weight ratios 2, 1 and 0.5.

Amino acid sequences for entries named in this document (tags omitted). Residues count along the entry.
UniProt P01012, residues 2-386: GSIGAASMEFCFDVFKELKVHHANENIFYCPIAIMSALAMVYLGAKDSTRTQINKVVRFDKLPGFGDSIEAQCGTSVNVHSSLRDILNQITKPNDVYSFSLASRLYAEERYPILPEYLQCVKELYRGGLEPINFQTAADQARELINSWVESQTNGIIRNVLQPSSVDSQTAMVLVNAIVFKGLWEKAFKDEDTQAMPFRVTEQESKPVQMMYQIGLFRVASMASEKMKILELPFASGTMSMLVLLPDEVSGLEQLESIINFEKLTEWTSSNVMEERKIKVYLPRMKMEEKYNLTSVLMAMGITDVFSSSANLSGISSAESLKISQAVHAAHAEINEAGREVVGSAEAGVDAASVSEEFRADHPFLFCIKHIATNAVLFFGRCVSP

No constants are given. Whether binding was seen depends on the method and setting. Some results given as binding are weak or reduced against the parent protein; the word gives no strength.

B1: adhesive adjuvant protein (MAP-AP; MAP-based Adjuvant Protein) (other)
chain: MAKPSYPPTYKAKPSYPPTYKAKPSYPPTYKAKPSYPPTYKAKPSYPPTYKAKPSYPPTYKPWSSEEYKGGYYPGNTYHYHSGGSYHGSGYHGGYKGKYYGKAKKYYYKYKNSGKYKYLKKARKYHRKGYKKYYGGGSSAKPSYPPTYKAKPSYPPTYKAKPSYPPTYKAKPSYPPTYKAKPSYPPTYKAKPSYPPTYKLGGGGSAKFVAAWTLKAAA
notes: Recombinant fusion protein made in E. coli; also called MAP-based Adhesive adjuvant protein
Regarding B1, the binding entry is recorded as “binds”.

The values are drawn from US20260167681A1 (POSTECH RESEARCH AND BUSINESS DEVELOPMENT FOUNDATION, published 2026).
